Our source for the binding values is paper doi:10.1101/2022.09.26.509508.

Holding throughout (test): two-hybrid
Experiment [1] has as its target T1, LIN-42b (LIN-42^Period isoform, two-hybrid bait) (C. elegans) (UniProt Q65ZG8).
T1 sequence: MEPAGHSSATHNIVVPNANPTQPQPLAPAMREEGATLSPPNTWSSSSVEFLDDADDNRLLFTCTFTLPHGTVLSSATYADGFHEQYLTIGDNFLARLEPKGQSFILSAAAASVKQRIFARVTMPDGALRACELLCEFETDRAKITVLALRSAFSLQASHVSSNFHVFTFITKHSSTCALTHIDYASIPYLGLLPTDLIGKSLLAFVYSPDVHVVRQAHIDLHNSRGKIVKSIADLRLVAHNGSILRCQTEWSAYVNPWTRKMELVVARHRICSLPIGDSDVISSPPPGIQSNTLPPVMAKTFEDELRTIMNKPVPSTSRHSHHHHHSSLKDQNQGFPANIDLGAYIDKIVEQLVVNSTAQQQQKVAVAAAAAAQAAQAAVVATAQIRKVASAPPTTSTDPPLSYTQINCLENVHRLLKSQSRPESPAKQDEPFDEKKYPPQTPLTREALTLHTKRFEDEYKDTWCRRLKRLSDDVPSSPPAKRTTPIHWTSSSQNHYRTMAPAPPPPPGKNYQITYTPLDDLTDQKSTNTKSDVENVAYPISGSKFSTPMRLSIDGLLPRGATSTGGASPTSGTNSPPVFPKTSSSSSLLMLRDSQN

Experiment [2] has as its target T2, NHR-23^ROR (two-hybrid fusion) (C. elegans) (UniProt P41828).
T2 sequence: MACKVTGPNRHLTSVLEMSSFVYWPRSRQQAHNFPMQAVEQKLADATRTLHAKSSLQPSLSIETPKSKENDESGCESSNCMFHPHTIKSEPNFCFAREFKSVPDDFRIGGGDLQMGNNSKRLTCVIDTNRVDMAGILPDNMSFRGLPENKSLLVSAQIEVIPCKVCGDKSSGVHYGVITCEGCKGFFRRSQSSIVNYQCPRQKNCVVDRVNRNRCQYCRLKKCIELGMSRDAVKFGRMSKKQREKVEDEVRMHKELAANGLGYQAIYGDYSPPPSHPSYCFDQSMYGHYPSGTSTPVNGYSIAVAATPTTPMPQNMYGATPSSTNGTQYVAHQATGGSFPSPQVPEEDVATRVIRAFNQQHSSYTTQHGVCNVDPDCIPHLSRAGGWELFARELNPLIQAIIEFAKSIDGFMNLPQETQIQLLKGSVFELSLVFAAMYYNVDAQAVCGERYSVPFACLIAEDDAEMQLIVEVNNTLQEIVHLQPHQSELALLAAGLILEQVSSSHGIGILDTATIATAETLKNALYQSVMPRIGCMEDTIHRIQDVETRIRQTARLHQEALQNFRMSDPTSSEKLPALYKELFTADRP

Experiment [3] concerns the target T3, LIN-42b (LIN-42^Period isoform, two-hybrid bait) (C. elegans), Q65ZG8.
T3 chain: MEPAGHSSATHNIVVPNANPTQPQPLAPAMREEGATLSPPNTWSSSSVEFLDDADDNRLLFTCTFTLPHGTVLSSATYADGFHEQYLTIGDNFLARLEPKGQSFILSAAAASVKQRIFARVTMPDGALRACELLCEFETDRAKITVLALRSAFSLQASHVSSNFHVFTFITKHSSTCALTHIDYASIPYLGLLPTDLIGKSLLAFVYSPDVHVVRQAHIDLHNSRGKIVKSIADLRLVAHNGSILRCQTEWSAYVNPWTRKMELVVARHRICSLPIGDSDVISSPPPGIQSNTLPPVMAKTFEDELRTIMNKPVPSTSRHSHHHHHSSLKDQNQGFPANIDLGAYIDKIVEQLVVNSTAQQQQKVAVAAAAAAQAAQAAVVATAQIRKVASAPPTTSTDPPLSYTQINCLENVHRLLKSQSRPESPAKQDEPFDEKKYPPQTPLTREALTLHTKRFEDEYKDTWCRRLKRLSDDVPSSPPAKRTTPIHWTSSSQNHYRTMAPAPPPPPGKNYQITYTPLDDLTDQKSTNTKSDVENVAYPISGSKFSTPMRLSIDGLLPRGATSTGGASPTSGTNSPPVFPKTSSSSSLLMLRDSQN
The following applies: remark: other sources report otherwise.

These are yes or no findings as the source states them, for the method shown. Some entries that bind do so weakly or less than the wild type. Sequences can lack the tags named with a protein.

B1: NHR-23^ROR (two-hybrid fusion) (protein, UniProt P41828 1-588)
chain: MACKVTGPNRHLTSVLEMSSFVYWPRSRQQAHNFPMQAVEQKLADATRTLHAKSSLQPSLSIETPKSKENDESGCESSNCMFHPHTIKSEPNFCFAREFKSVPDDFRIGGGDLQMGNNSKRLTCVIDTNRVDMAGILPDNMSFRGLPENKSLLVSAQIEVIPCKVCGDKSSGVHYGVITCEGCKGFFRRSQSSIVNYQCPRQKNCVVDRVNRNRCQYCRLKKCIELGMSRDAVKFGRMSKKQREKVEDEVRMHKELAANGLGYQAIYGDYSPPPSHPSYCFDQSMYGHYPSGTSTPVNGYSIAVAATPTTPMPQNMYGATPSSTNGTQYVAHQATGGSFPSPQVPEEDVATRVIRAFNQQHSSYTTQHGVCNVDPDCIPHLSRAGGWELFARELNPLIQAIIEFAKSIDGFMNLPQETQIQLLKGSVFELSLVFAAMYYNVDAQAVCGERYSVPFACLIAEDDAEMQLIVEVNNTLQEIVHLQPHQSELALLAAGLILEQVSSSHGIGILDTATIATAETLKNALYQSVMPRIGCMEDTIHRIQDVETRIRQTARLHQEALQNFRMSDPTSSEKLPALYKELFTADRP
B1: the binding result in experiment [1] is given as “no binding”.

B2: NHR-85^Rev-Erb (two-hybrid fusion) (protein, UniProt Q9XUK7 1-514)
chain: MDLSTSGSLPCHLPLSLLTNLQTPPIDTSFSSPPATSSSSLLSPSPSSAFRPVVPKSLMNPQPAMDTFYMSAIQSLVVSTTNDDQYSEHGALEGSKSLAKDENASTSAGTILCQVCSDKASGFHYGVFACEGCKGFFRRSIQQKITYRACTRAEDCLILRNNRNRCQCCRLKKCLAVGMSRDAVRFGRVPKREKARMFEEMQKTNVQSQRDQIAIQYENLTEVMHKINQAFGTLQATLEKCTGPIYTDRCPITSNFIVIPLKAAIDFANSIPAFLSITQTQRVHLLQNSVFDVMLLASASASTSQHFPPGGLTYDQSSANPIIPQAIQSISARIRQLPPQTVPILTAIAVCQADLLPESQQPMLLAERLWCVLGKLGGIQSLATAPSLLADVRTLRQWHSDRLRQMSQISQHFSQNLLIAPVAAAAPVLLPPAFLSPPASATSTSSSSVKSEFIERHPSIASLLERPRRISSSGAQEPLNLSLPHVRHQVKRDVDSDEQLEEMKVSPVPTTLSE
For the molecule B2, the binding entry in experiment [2] is on record as “binds”.

B3: NHR-85^Rev-Erb (two-hybrid fusion), Q9XUK7 1-514 (protein)
chain: MDLSTSGSLPCHLPLSLLTNLQTPPIDTSFSSPPATSSSSLLSPSPSSAFRPVVPKSLMNPQPAMDTFYMSAIQSLVVSTTNDDQYSEHGALEGSKSLAKDENASTSAGTILCQVCSDKASGFHYGVFACEGCKGFFRRSIQQKITYRACTRAEDCLILRNNRNRCQCCRLKKCLAVGMSRDAVRFGRVPKREKARMFEEMQKTNVQSQRDQIAIQYENLTEVMHKINQAFGTLQATLEKCTGPIYTDRCPITSNFIVIPLKAAIDFANSIPAFLSITQTQRVHLLQNSVFDVMLLASASASTSQHFPPGGLTYDQSSANPIIPQAIQSISARIRQLPPQTVPILTAIAVCQADLLPESQQPMLLAERLWCVLGKLGGIQSLATAPSLLADVRTLRQWHSDRLRQMSQISQHFSQNLLIAPVAAAAPVLLPPAFLSPPASATSTSSSSVKSEFIERHPSIASLLERPRRISSSGAQEPLNLSLPHVRHQVKRDVDSDEQLEEMKVSPVPTTLSE
In the case of B3, the binding result in experiment [3] is recorded as “binds”.
